Here are results for three molecules from paper PMC4141822.

Assay [1] addresses Thermoproteus tenax Csa5 wild type (TTX_1250) (Thermoproteus tenax Kra1) (UniProt G4RJZ0). Briefly: SDS-PAGE of SDS-stable oligomers; freshly purified protein incubated for 1 h at 0°C, 37°C, 70°C, 90°C; both purified.
Assay [2] has the same target. Briefly: SEC; freshly purified protein, 1–3.25 mg on Superdex 200 10/300GL in purification buffer (100 mM HEPES/KOH pH 7, 10% glycerol, 10 mM β-Me, 300 mM NaCl); size from calibration proteins; both purified. Background: Size exclusion chromatography separates by hydrodynamic size, large species first.
The target is the same in assay [3]. In words: SEC; three-month old protein solution, 1–3.25 mg on Superdex 200 10/300GL in purification buffer (100 mM HEPES/KOH pH 7, 10% glycerol, 10 mM β-Me, 300 mM NaCl); size from calibration proteins; both purified.
Assay [4] shares this target. Briefly: SDS-PAGE of SDS-stable oligomers; purified protein stored at 4°C for 1, 2, 4, 8 and 16 weeks; identity by mass spectrometry; nine-month old solution also after 6 M GdmCl (RT or 95°C) or 120°C in SDS-buffer; both purified.
The target of assay [5] is Thermoproteus tenax Csa5 D30A/D33A (Thermoproteus tenax Kra1) (UniProt G4RJZ0). Briefly: SDS-PAGE of SDS-stable oligomers; freshly purified protein incubated for 1 h at 0°C, 37°C, 70°C, 90°C; both purified.
Assay [6] addresses Thermoproteus tenax Csa5 D33A (Thermoproteus tenax Kra1) (UniProt G4RJZ0). In words: SEC; three-month old protein solution, 1–3.25 mg on Superdex 200 10/300GL in purification buffer (100 mM HEPES/KOH pH 7, 10% glycerol, 10 mM β-Me, 300 mM NaCl); size from calibration proteins; both purified.

Numbering of substitutions follows the chain as printed. Numbers in names are those of the source. No constants are given. Whether binding was seen depends on the method and setting.

B1: Thermoproteus tenax Csa5 wild type (TTX_1250) (natural protein, Thermoproteus tenax Kra1, UniProt G4RJZ0 1-130, looked up)
chain: MESVQLKKEELVERAARSVRPAVHLEMAYDVLDELSRSPEKYPEQLAKLSRIVVKVLNDVEDELEHNPQNEELQKARNRLAAWGGYVAELAKRLEEADDRERIRMVRLFCAMALAPDKLTVELKKLLKGR
notes: Csa5 (Csa5b), small subunit of the type I-A Cascade, Thermoproteus tenax Kra1, locus TTX_1250; theoretical mass of the monomer 15.04 kDa; no tag is named and the purification uses none; also called Csa5 WT; Csa5b; source: E. coli Rosetta(DE3)pLysS, purified (heat precipitation 90°C, Blue-Sepharose, MonoQ)
For the molecule B1, the binding result in assay [1] was “no binding”; in assay [2], “no binding (tested: 1–3.25 mg protein)”; in assay [3], “no binding”; in assay [4], “no binding”.

B2: Thermoproteus tenax Csa5 D30A/D33A (natural protein, Thermoproteus tenax Kra1, UniProt G4RJZ0 1-130, looked up)
chain: B1 chain with D30A, D33A
notes: Made by site-directed mutagenesis of the pET24a csa5 construct; source: E. coli Rosetta(DE3)pLysS, purified (heat precipitation 90°C, Blue-Sepharose, MonoQ)
Consider B2, for which the binding result in assay [5] is given as “no binding”.

B3: Thermoproteus tenax Csa5 D33A (natural protein, Thermoproteus tenax Kra1, UniProt G4RJZ0 1-130, looked up)
chain: B1 chain with D33A
notes: as for B2
Regarding B3, the binding entry in assay [6] is given as “no binding”.
